Results are given in words; binding and its absence hold for the method and conditions named. Binding seen in cells or lysates may run through a third protein. Some entries that bind do so weakly or less than the wild type. Sequences can lack the tags named with a protein.
Target: T1, FLAG-Sting (UniProt Q3TBT3)
T1 sequence: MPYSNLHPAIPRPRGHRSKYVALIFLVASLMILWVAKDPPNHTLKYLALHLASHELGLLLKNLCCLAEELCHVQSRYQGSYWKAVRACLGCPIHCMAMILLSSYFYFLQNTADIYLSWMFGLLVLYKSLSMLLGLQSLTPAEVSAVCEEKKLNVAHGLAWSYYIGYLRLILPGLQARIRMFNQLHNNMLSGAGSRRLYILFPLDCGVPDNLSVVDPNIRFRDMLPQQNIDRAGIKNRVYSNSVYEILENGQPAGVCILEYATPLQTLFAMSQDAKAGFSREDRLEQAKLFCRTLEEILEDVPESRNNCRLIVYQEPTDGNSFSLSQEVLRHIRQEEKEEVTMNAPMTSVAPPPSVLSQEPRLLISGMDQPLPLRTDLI
Assay: co-IP; HEK293T cells transfected with FLAG-Sting and HA-Rab GTPases, harvested 24 h later; lysis in 20 mM Tris-HCl pH 7.4, 0.5% Nonidet-P40, 150 mM NaCl; IP with the FLAG antibody on Protein G dynabeads overnight at 4 °C; western blot

B1: HA-Rab9a (protein, UniProt Q9R0M6 1-201)
chain: MAGKSSLFKIILLGDGGVGKSSLMNRYVTNKFDSQLFHTIGVEFLNKDLEVDGHFVTMQIWDTAGQERFRSLRTPFYRGSDCCLLTFSVDDSQSFQNLSNWKKEFIYYADVKEPESFPFVILGNKTDIKERQVSTEEAQAWCKDNGDYPYFETSAKDSTNVAAAFEEAVRRILATEDRSEHLIQTDTVNLHRKPKPNSSCC
In the case of B1, the binding is reported as “binds”.

B2: HA-Rab23 (protein, UniProt P35288 1-237)
chain: MLEEDMEVAIKMVVVGNGAVGKSSMIQRYCKGIFTKDYKKTIGVDFLERQIQVNDEDVRLMLWDTAGQEEFDAITKAYYRGAQACVLVFSTTDRESFEAISSWREKVVAEVGDIPTALVQNKIDLLDDSCIKNEEAEGLAKRLKLRFYRTSVKEDLNVSEVFKYLAEKHLQKLKQQITEDPEQTHSSSNKIGVFNASVGSHLGQNSSSLNGGDVINLRPNKQRTKRTRNPFSSCSVP
In the case of B2, the binding is reported as “binds weakly”.
